Laboratory results reported in publication PMC7835349 (Communications Biology, 2021).
Where “and” joins values, the source holds several entries; their conditions need not be identical. Equal values may be shown once. Further values from the same series stand in other lists.

Test system: telemetered dogs
Test: Conscious dog telemetry (QRS amplitude and other cardiovascular parameters, tolerability)
Settings: dog
[1] = 0.85 mg/kg 3h infusion, 8 h, 0.85 mg/kg
[2] = 0.85 mg/kg 3h infusion, 12 h, 0.85 mg/kg
[3] = 0.85 mg/kg 3h infusion, 16 h, 0.85 mg/kg
[4] = 0.85 mg/kg 3h infusion, 22 h, 0.85 mg/kg
[5] = 0.85 mg/kg 3h infusion, -0.75 h, 0.85 mg/kg
[6] = 0.85 mg/kg 3h infusion, -1 h, 0.85 mg/kg
[7] = 0.85 mg/kg 3h infusion, -1.25 h, 0.85 mg/kg

CN(CCO)CCC(CSc1ccccc1)Nc1ccc(S(=O)(=O)NC(=O)c2ccc(N3CCC(C(O)c4ccccc4-c4ccc(Cl)cc4)CC3)cc2)cc1S(=O)(=O)C(F)(F)F (stereo not shown) [AZD4320]
Left ventricular -dP/dt (mmHg/s) [1]: 2132 mmHg/s and 2355 mmHg/s and 2916 mmHg/s and 3974 mmHg/s
QRS amplitude (% baseline) [1]: 74 % baseline and 56 % baseline and 75 % baseline and 83 % baseline
Systolic blood pressure (mmHg) [1]: 107 mmHg and 118 mmHg and 153 mmHg and 152 mmHg
ECG PR interval [2]: 86 ms and 70 ms and 71 ms
ECG QRS duration [2]: 43 ms and 37 ms and 39 ms and 35 ms
Left ventricular -dP/dt (mmHg/s) [2]: 2805 mmHg/s and 2508 mmHg/s and 2799 mmHg/s and 3945 mmHg/s
QRS amplitude (% baseline) [2]: 85 % baseline and 68 % baseline and 95 % baseline and 78 % baseline
Systolic blood pressure (mmHg) [2]: 122 mmHg and 135 mmHg and 159 mmHg and 155 mmHg
ECG PR interval [3]: 91 ms and 98 ms and 89 ms and 75 ms
ECG QRS duration [3]: 45 ms and 37 ms and 40 ms and 35 ms
Left ventricular -dP/dt (mmHg/s) [3]: 3565 mmHg/s and 2934 mmHg/s and 2794 mmHg/s and 4930 mmHg/s
QRS amplitude (% baseline) [3]: 90 % baseline and 82 % baseline and 84 % baseline
Systolic blood pressure (mmHg) [3]: 139 mmHg and 133 mmHg and 156 mmHg and 159 mmHg
ECG PR interval [4]: 115 ms and 95 ms and 105 ms and 90 ms
ECG QRS duration [4]: 45 ms and 39 ms and 36 ms
Left ventricular -dP/dt (mmHg/s) [4]: 3001 mmHg/s and 3258 mmHg/s and 3054 mmHg/s and 4615 mmHg/s
QRS amplitude (% baseline) [4]: 95 % baseline and 80 % baseline and 87 % baseline and 97 % baseline
Systolic blood pressure (mmHg) [4]: 129 mmHg and 166 mmHg and 153 mmHg and 163 mmHg
ECG PR interval [5]: 111 ms and 92 ms and 87 ms and 91 ms
ECG QRS duration [5]: 45 ms and 39 ms and 40 ms and 36 ms
Left ventricular -dP/dt (mmHg/s) [5]: 3661 mmHg/s and 3123 mmHg/s and 2933 mmHg/s and 4747 mmHg/s
QRS amplitude (% baseline) [5]: 96 % baseline and 100 % baseline and 99 % baseline and 95 % baseline
Systolic blood pressure (mmHg) [5]: 149 mmHg and 155 mmHg and 148 mmHg and 162 mmHg
ECG PR interval [6]: 116 ms and 100 ms and 92 ms and 90 ms
ECG QRS duration [6]: 46 ms and 40 ms and 39 ms and 36 ms
Left ventricular -dP/dt (mmHg/s) [6]: 3153 mmHg/s and 2761 mmHg/s and 3657 mmHg/s and 4923 mmHg/s
QRS amplitude (% baseline) [6]: 95 % baseline and 100 % baseline and 94 % baseline
Systolic blood pressure (mmHg) [6]: 138 mmHg and 140 mmHg and 164 mmHg and 165 mmHg
ECG PR interval [7]: 112 ms and 96 ms and 93 ms
ECG QRS duration [7]: 45 ms and 39 ms and 40 ms and 36 ms
Left ventricular -dP/dt (mmHg/s) [7]: 3603 mmHg/s and 3164 mmHg/s and 2717 mmHg/s and 4703 mmHg/s
QRS amplitude (% baseline) [7]: 96 % baseline and 107 % baseline and 102 % baseline and 93 % baseline
Systolic blood pressure (mmHg) [7]: 148 mmHg and 153 mmHg and 136 mmHg and 157 mmHg
QRS amplitude (% baseline) (0.85 mg/kg 3h infusion, -[…]): 100 % baseline
ECG PR interval (1 mg/kg 0.5h infusion, 0 h): 103 ms
ECG QRS duration (1 mg/kg 0.5h infusion, 0 h): 45 ms
Left ventricular -dP/dt (mmHg/s) (1 mg/kg 0.5h infusion, 0 h): -1983 mmHg/s
QRS amplitude (% baseline) (1 mg/kg 0.5h infusion, 0 h): 100 % baseline
Systolic blood pressure (mmHg) (1 mg/kg 0.5h infusion, 0 h): 126 mmHg
ECG PR interval (1 mg/kg 0.5h infusion, 0.5 h): 89 ms
ECG QRS duration (1 mg/kg 0.5h infusion, 0.5 h): 45 ms
Left ventricular -dP/dt (mmHg/s) (1 mg/kg 0.5h infusion, 0.5 h): -2409 mmHg/s
QRS amplitude (% baseline) (1 mg/kg 0.5h infusion, 0.5 h): 98 % baseline
Systolic blood pressure (mmHg) (1 mg/kg 0.5h infusion, 0.5 h): 162 mmHg
ECG PR interval (1 mg/kg 0.5h infusion, 1 h): 93 ms
ECG QRS duration (1 mg/kg 0.5h infusion, 1 h): 45 ms
Left ventricular -dP/dt (mmHg/s) (1 mg/kg 0.5h infusion, 1 h): -2284 mmHg/s
QRS amplitude (% baseline) (1 mg/kg 0.5h infusion, 1 h): 99 % baseline
Systolic blood pressure (mmHg) (1 mg/kg 0.5h infusion, 1 h): 151 mmHg
ECG PR interval (1 mg/kg 0.5h infusion, 1.5 h): 99 ms
ECG QRS duration (1 mg/kg 0.5h infusion, 1.5 h): 44 ms
Left ventricular -dP/dt (mmHg/s) (1 mg/kg 0.5h infusion, 1.5 h): -2274 mmHg/s
QRS amplitude (% baseline) (1 mg/kg 0.5h infusion, 1.5 h): 96 % baseline
Systolic blood pressure (mmHg) (1 mg/kg 0.5h infusion, 1.5 h): 152 mmHg
ECG PR interval (1 mg/kg 0.5h infusion, 2 h): 100 ms
ECG QRS duration (1 mg/kg 0.5h infusion, 2 h): 44 ms
Left ventricular -dP/dt (mmHg/s) (1 mg/kg 0.5h infusion, 2 h): -2238 mmHg/s
QRS amplitude (% baseline) (1 mg/kg 0.5h infusion, 2 h): 66 % baseline
Systolic blood pressure (mmHg) (1 mg/kg 0.5h infusion, 2 h): 154 mmHg
ECG PR interval (1 mg/kg 0.5h infusion, 3 h): 94 ms
ECG QRS duration (1 mg/kg 0.5h infusion, 3 h): 45 ms
Left ventricular -dP/dt (mmHg/s) (1 mg/kg 0.5h infusion, 3 h): -1148 mmHg/s
QRS amplitude (% baseline) (1 mg/kg 0.5h infusion, 3 h): 23 % baseline
Systolic blood pressure (mmHg) (1 mg/kg 0.5h infusion, 3 h): 100 mmHg
ECG PR interval (1 mg/kg 0.5h infusion, 4 h): 84 ms
ECG QRS duration (1 mg/kg 0.5h infusion, 4 h): 43 ms
Left ventricular -dP/dt (mmHg/s) (1 mg/kg 0.5h infusion, 4 h): -1167 mmHg/s
QRS amplitude (% baseline) (1 mg/kg 0.5h infusion, 4 h): 24 % baseline
Systolic blood pressure (mmHg) (1 mg/kg 0.5h infusion, 4 h): 92 mmHg
ECG PR interval (1 mg/kg 0.5h infusion, 6 h): 91 ms
ECG QRS duration (1 mg/kg 0.5h infusion, 6 h): 43 ms
Left ventricular -dP/dt (mmHg/s) (1 mg/kg 0.5h infusion, 6 h): -1549 mmHg/s
QRS amplitude (% baseline) (1 mg/kg 0.5h infusion, 6 h): 20 % baseline
Systolic blood pressure (mmHg) (1 mg/kg 0.5h infusion, 6 h): 85 mmHg
ECG PR interval (1 mg/kg 0.5h infusion, 8 h): 86 ms
ECG QRS duration (1 mg/kg 0.5h infusion, 8 h): 45 ms
Left ventricular -dP/dt (mmHg/s) (1 mg/kg 0.5h infusion, 8 h): -2129 mmHg/s
QRS amplitude (% baseline) (1 mg/kg 0.5h infusion, 8 h): 29 % baseline
Systolic blood pressure (mmHg) (1 mg/kg 0.5h infusion, 8 h): 113 mmHg
ECG PR interval (1 mg/kg 0.5h infusion, 10 h): 91 ms
ECG QRS duration (1 mg/kg 0.5h infusion, 10 h): 43 ms
Left ventricular -dP/dt (mmHg/s) (1 mg/kg 0.5h infusion, 10 h): -1885 mmHg/s
QRS amplitude (% baseline) (1 mg/kg 0.5h infusion, 10 h): 29 % baseline
Systolic blood pressure (mmHg) (1 mg/kg 0.5h infusion, 10 h): 104 mmHg
ECG PR interval (1 mg/kg 0.5h infusion, -0.5 h): 110 ms
ECG QRS duration (1 mg/kg 0.5h infusion, -0.5 h): 44 ms
Left ventricular -dP/dt (mmHg/s) (1 mg/kg 0.5h infusion, -0.5 h): -2044 mmHg/s
QRS amplitude (% baseline) (1 mg/kg 0.5h infusion, -0.5 h): 103 % baseline
Systolic blood pressure (mmHg) (1 mg/kg 0.5h infusion, -0.5 h): 123 mmHg
ECG PR interval (1 mg/kg 0.5h infusion, -0.75 h): 98 ms
ECG QRS duration (1 mg/kg 0.5h infusion, -0.75 h): 45 ms
Left ventricular -dP/dt (mmHg/s) (1 mg/kg 0.5h infusion, -0.75 h): -2025 mmHg/s
QRS amplitude (% baseline) (1 mg/kg 0.5h infusion, -0.75 h): 99 % baseline
Systolic blood pressure (mmHg) (1 mg/kg 0.5h infusion, -0.75 h): 133 mmHg
ECG PR interval (1 mg/kg 0.5h infusion, -1 h): 96 ms
ECG QRS duration (1 mg/kg 0.5h infusion, -1 h): 45 ms
Left ventricular -dP/dt (mmHg/s) (1 mg/kg 0.5h infusion, -1 h): -2048 mmHg/s
QRS amplitude (% baseline) (1 mg/kg 0.5h infusion, -1 h): 95 % baseline
Systolic blood pressure (mmHg) (1 mg/kg 0.5h infusion, -1 h): 131 mmHg
ECG PR interval (1 mg/kg 0.5h infusion, -[…]): 108 ms
ECG QRS duration (1 mg/kg 0.5h infusion, -[…]): 45 ms
Left ventricular -dP/dt (mmHg/s) (1 mg/kg 0.5h infusion, -[…]): -1815 mmHg/s
QRS amplitude (% baseline) (1 mg/kg 0.5h infusion, -[…]): 103 % baseline
Systolic blood pressure (mmHg) (1 mg/kg 0.5h infusion, -[…]): 117 mmHg
ECG PR interval (1 mg/kg 0.5h infusion, […]): 87 ms
ECG QRS duration (1 mg/kg 0.5h infusion, […]): 43 ms
Left ventricular -dP/dt (mmHg/s) (1 mg/kg 0.5h infusion, […]): -1338 mmHg/s
QRS amplitude (% baseline) (1 mg/kg 0.5h infusion, […]): 33 % baseline
Systolic blood pressure (mmHg) (1 mg/kg 0.5h infusion, […]): 106 mmHg
